Read-outs that look alike come from different tables or passages of the source. At least one compound was matched to its structure with a doubt left.
Test system: bEnd.3 cells
Assay type: cell-based, murine
Conditions: for repair of the wound: at 24 hours, indented bEnd.3 cells, phase-contrast photographs

Structure (SMILES): CNC(=C[N+](=O)[O-])NCCSCc1ccc(CN(C)C)o1 [ranitidine]
- migration of the endothelioma cells (ranitidine 1 µg/mL): stimulates the migration
- repair of the wound (ranitidine 1 µg/mL): complete repair of the wound
- migration of the endothelioma cells (ranitidine 10 µg/mL): stimulates the migration
- repair of the wound (ranitidine 10 µg/mL): complete repair of the wound

Reference: patent EP2070531A1, “Pharmaceutical preparation containing histamine H2-receptor antagonists having wound healing activity at low doses” (Russo, Maria, priority 2007, dated 2009)
